The exact form of at least one protein or probe is not confirmed.
Molecular target: GST-Msx2 (UniProt Q03358)
Experiment: EMSA
Settings: 1X phosphate buffer, 10% glycerol, 0.3 mg/ul BSA, 0.1 ug/ul DNaseI-digested poly[dG-dC], 20 ul, on ice 10 min + 20 min with probe; 6% native PAGE, 1x TBE, 4 C; recombinant protein; residues 1-267; protein details: N-terminal GST (pGEX3X); label: 32P 5' end (PNK) when probe

Sequences of proteins named here, by UniProt entry; tags and fusion partners are left off. A change or cut given only in a name is not applied to a line headed by its entry.
UniProt Q03358: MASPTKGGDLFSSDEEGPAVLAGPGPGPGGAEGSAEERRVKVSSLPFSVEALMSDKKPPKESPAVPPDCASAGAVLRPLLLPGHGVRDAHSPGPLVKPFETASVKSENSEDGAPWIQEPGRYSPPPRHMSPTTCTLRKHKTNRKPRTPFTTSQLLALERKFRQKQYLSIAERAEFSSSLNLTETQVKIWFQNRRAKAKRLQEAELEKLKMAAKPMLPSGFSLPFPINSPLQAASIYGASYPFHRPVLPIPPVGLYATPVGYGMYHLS

GATCCACTAATTGGAGG (double strand) [MBS]: binds.

— article PMC3373496
